The record followed here is EP0349681A1, “Methods for treating hydrocarbon recovery operations and industrial waters” (PETROLITE CORPORATION, priority 1988, dated 1990).

Each structure is given as a SMILES string.

The data set can be described thus: bottle test of reverse demulsifiers. The settings on record: 30 ppm chemical, 100 shakes; for Break Time: 100 ml oil field water.

As for `S=C(S)NCCCCCCN(CCCCCCNC(=S)S)C(=S)S` [Example 6], the “Break Time” value is 30 s and the “Comments (cleanness of the separated water)” value is reported as “Sparkling clear water”.

Consider `CCCCCCCCN(CCCNC(=S)S)C(=S)S` [Example 8], for which the “Break Time” value is 30 s and the “Comments (cleanness of the separated water)” value is on record as “Sparkling clear water”.
